Experimental data from US20170290821A1 (priority 2014, published 2017).

Experiments:
[1] = Cytotoxicity test (Cell Counting Kit-8), HEK293; type: cell-based; details: human, HEK293 cells, 293 (HEK293) cells, read-out: CC50 (50% cytotoxicity concentration)
Protocol: (§1) First, as test compound solutions, test compounds were prepared in 1% dimethylsulfoxide-containing MEMs so that a final concentration was 1000, 100, 10, 1, 0.1, 0.01, or 0.001 μM.
(§2) Cell fluids in which MDCK cells, A549 cells, and HEK293 cells were prepared at concentrations of 6.25×10^5 cells/mL, 2.5×10^6 cells/mL, and 1.25×10^5 cells/mL in minimum essential mediums (MEMs) were added to a 96-well plate at 0.1 ml/well and the cells were seeded. The cells in the 96-well plate were cultured in a carbon dioxide incubator at 37° C. and washed with MEM the day after the seeding date. In the washed cells in the 96-well plate, 0.1 mL of each test compound solution was added to three wells for each concentration and the cells in the 96-well plate were then cultured in a carbon dioxide incubator at 37° C. for 48 hours. After the culture, a Cell Counting Kit-8 solution (commercially available from Dojindo Molecular Technologies, Inc.) was added to each well at 10 μL and culture was additionally performed at 37° C. for several hours. After the culture, an absorbance at 450 nm of a solution of each well in the 96-well plate was measured using a microplate reader. An absorbance value when a solvent (1% dimethylsulfoxide-containing MEM) was added in place of the test compound was set to 100% at which the whole cells survived. […]

[2] = Cytotoxicity test (Cell Counting Kit-8), A549; type: cell-based; details: human, A549 cells, read-out: CC50 (50% cytotoxicity concentration)
Protocol: as §1, §2

For CCS(=O)(=O)N1CC(CC#N)(n2cc(-c3ncnc4[nH]ccc34)cn2)C1 [Compound J6, 2-[1-ethylsulfonyl-3-[4-(7H-pyrrolo[2,3-d]pyrimidin-4-yl)-pyrazol-1-yl]azetidin-3-yl]acetonitrile], the CC50 at 48 h [1] was over 316 µM and the CC50 at 48 h [2] was over 316 µM.
